Reference: US8217085B2 (priority 2009, dated 2012)
Several values for one entry are separate records, joined by “and”; a condition that tells them apart may be missing. Equal values may be shown once. Read-outs that look alike come from different tables or passages of the source. This continues a long series; more values of the same kind are listed elsewhere.

Test system: ATCC strain 43300 Staphylococcus aureus
[1] = 10% MSM, 60 μg/ml oxacillin, 72 hours
[2] = 10% MSM, 60 μg/ml oxacillin, 96 hours
[3] = 10% MSM, 60 μg/ml oxacillin, 120 hours
[4] = 11% MSM, 12 μg/ml oxacillin, 96 hours
[5] = 11% MSM, 12 μg/ml oxacillin, 120 hours
[6] = 11% MSM, 30 μg/ml oxacillin, 96 hours
[7] = 11% MSM, 30 μg/ml oxacillin, 120 hours
[8] = 11% MSM, 60 μg/ml oxacillin, 72 hours
[9] = 11% MSM, 60 μg/ml oxacillin, 120 hours
[10] = 12% MSM, 12 μg/ml oxacillin, 96 hours
[11] = 12% MSM, 12 μg/ml oxacillin, 120 hours
[12] = 12% MSM, 30 μg/ml oxacillin, 96 hours
[13] = 12% MSM, 30 μg/ml oxacillin, 120 hours
[14] = 12% MSM, 60 μg/ml oxacillin, 96 hours
[15] = 12% MSM, 60 μg/ml oxacillin, 120 hours
[16] = 13% MSM, 12 μg/ml oxacillin, 96 hours
[17] = 13% MSM, 12 μg/ml oxacillin, 120 hours
[18] = 13% MSM, 30 μg/ml oxacillin, 96 hours
[19] = 13% MSM, 30 μg/ml oxacillin, 120 hours
[20] = 13% MSM, 60 μg/ml oxacillin, 96 hours
[21] = 13% MSM, 60 μg/ml oxacillin, 120 hours
[22] = 14% MSM, 12 μg/ml oxacillin, 96 hours
[23] = 14% MSM, 12 μg/ml oxacillin, 120 hours
[24] = 14% MSM, 30 μg/ml oxacillin, 96 hours
[25] = 14% MSM, 30 μg/ml oxacillin, 120 hours
[26] = 14% MSM, 60 μg/ml oxacillin, 120 hours
[27] = 15% MSM, 12 μg/ml oxacillin, 96 hours
[28] = 15% MSM, 12 μg/ml oxacillin, 120 hours
[29] = 15% MSM, 30 μg/ml oxacillin, 96 hours
[30] = 15% MSM, 30 μg/ml oxacillin, 120 hours
[31] = 15% MSM, 60 μg/ml oxacillin, 120 hours
[32] = 16% MSM, 12 μg/ml oxacillin, 96 hours
[33] = 16% MSM, 12 μg/ml oxacillin, 120 hours
[34] = 16% MSM, 30 μg/ml oxacillin, 120 hours
[35] = 16% MSM, 60 μg/ml oxacillin, 96 hours
[36] = 16% MSM, 60 μg/ml oxacillin, 120 hours

CS(C)(=O)=O [MSM, methylsulfonylmethane]
survival (10% MSM, 30 μg/ml oxacillin, 120 hours): >3.3 × 10^5 cfu/ml
survival (10% MSM, 60 μg/ml oxacillin, 48 hours): 1.6 × 10^2 cfu/ml and 1.4 × 10^2 cfu/ml
Average Log [1]: 2.6 Log
survival [1]: 3.9 × 10^2 cfu/ml and 4.0 × 10^2 cfu/ml and 3.4 × 10^2 cfu/ml
Average Log [2]: 3.6 Log
survival [2]: 3.9 × 10^3 cfu/ml and 4.0 × 10^3 cfu/ml and 3.5 × 10^3 cfu/ml
Average Log [3]: 4.2 Log
survival [3]: 1.6 × 10^4 cfu/ml and 1.5 × 10^4 cfu/ml and 1.7 × 10^4 cfu/ml
survival (11% MSM, 12 μg/ml oxacillin, 72 hours): 4.4 × 10^3 cfu/ml and 4.5 × 10^3 cfu/ml and 4.0 × 10^3 cfu/ml
Average Log [4]: 5.5 Log
survival [4]: >3.3 × 10^5 cfu/ml
Average Log [5]: 5.5 Log
survival [5]: >3.3 × 10^5 cfu/ml
survival (11% MSM, 30 μg/ml oxacillin, 48 hours): 2.5 × 10^2 cfu/ml and 2.7 × 10^2 cfu/ml and 2.8 × 10^2 cfu/ml
survival (11% MSM, 30 μg/ml oxacillin, 72 hours): 1.2 × 10^3 cfu/ml and 1.7 × 10^3 cfu/ml and 1.5 × 10^3 cfu/ml
Average Log [6]: 5.5 Log
survival [6]: >3.3 × 10^5 cfu/ml
Average Log [7]: 5.5 Log
survival [7]: >3.3 × 10^5 cfu/ml
survival (11% MSM, 60 μg/ml oxacillin, 48 hours): 1.3 × 10^2 cfu/ml and 1.7 × 10^2 cfu/ml and 1.2 × 10^2 cfu/ml
Average Log [8]: 1 Log
survival [8]: 1.0 × 10^1 cfu/ml and 2.0 × 10^1 cfu/ml
survival (11% MSM, 60 μg/ml oxacillin, 96 hours): 0 cfu/ml
Average Log [9]: 0 Log
survival [9]: 0 cfu/ml
survival (12% MSM, 12 μg/ml oxacillin, 72 hours): 1.5 × 10^3 cfu/ml and 1.1 × 10^3 cfu/ml and 1.3 × 10^3 cfu/ml
Average Log [10]: 3.8 Log
survival [10]: 6.8 × 10^3 cfu/ml and 7.0 × 10^3 cfu/ml
Average Log [11]: 5.5 Log
survival [11]: >3.3 × 10^5 cfu/ml
survival (12% MSM, 30 μg/ml oxacillin, 48 hours): 3.9 × 10^2 cfu/ml and 3.6 × 10^2 cfu/ml and 4.0 × 10^2 cfu/ml
survival (12% MSM, 30 μg/ml oxacillin, 72 hours): 4.8 × 10^2 cfu/ml and 3.9 × 10^2 cfu/ml and 4.9 × 10^2 cfu/ml
Average Log [12]: 3.7 Log
survival [12]: 6.9 × 10^3 cfu/ml and 3.9 × 10^3 cfu/ml
Average Log [13]: 4.7 Log
survival [13]: 6.8 × 10^4 cfu/ml and 3.9 × 10^4 cfu/ml and 6.9 × 10^4 cfu/ml
survival (12% MSM, 60 μg/ml oxacillin, 48 hours): 1.1 × 10^2 cfu/ml and 1.0 × 10^2 cfu/ml
survival (12% MSM, 60 μg/ml oxacillin, 72 hours): 2.8 × 10^2 cfu/ml and 2.1 × 10^2 cfu/ml and 2.5 × 10^2 cfu/ml
Average Log [14]: 3.5 Log
survival [14]: 3.0 × 10^3 cfu/ml and 3.5 × 10^3 cfu/ml and 3.1 × 10^3 cfu/ml
Average Log [15]: 4.2 Log
survival [15]: 1.72 × 10^4 cfu/ml and 1.6 × 10^4 cfu/ml and 1.5 × 10^4 cfu/ml
survival (13% MSM, 12 μg/ml oxacillin, 72 hours): 5.2 × 10^2 cfu/ml and 5.1 × 10^2 cfu/ml and 5.4 × 10^2 cfu/ml
Average Log [16]: 3.2 Log
survival [16]: 1.6 × 10^3 cfu/ml and 1.7 × 10^3 cfu/ml and 1.2 × 10^3 cfu/ml
Average Log [17]: 3.8 Log
survival [17]: 6.2 × 10^3 cfu/ml and 6.7 × 10^3 cfu/ml
survival (13% MSM, 30 μg/ml oxacillin, 48 hours): 3.0 × 10^2 cfu/ml and 3.1 × 10^2 cfu/ml
Average Log [18]: 2.5 Log
survival [18]: 3.3 × 10^2 cfu/ml and 3.1 × 10^2 cfu/ml and 3.2 × 10^2 cfu/ml
Average Log [19]: 3.0 Log
survival [19]: 1.02 × 10^3 cfu/ml and 1.01 × 10^3 cfu/ml
survival (13% MSM, 60 μg/ml oxacillin, 48 hours): 6.0 × 10^1 cfu/ml and 4.0 × 10^1 cfu/ml and 5.0 × 10^1 cfu/ml
survival (13% MSM, 60 μg/ml oxacillin, 72 hours): 1.0 × 10^1 cfu/ml
Average Log [20]: 1.6 Log
survival [20]: 4.0 × 10^1 cfu/ml and 5.0 × 10^1 cfu/ml
Average Log [21]: 0 Log
survival [21]: 0 cfu/ml
survival (14% MSM, 12 μg/ml oxacillin, 72 hours): 1.1 × 10^2 cfu/ml and 1.2 × 10^2 cfu/ml
Average Log [22]: 1.8 Log
survival [22]: 6.0 × 10^1 cfu/ml and 5.0 × 10^1 cfu/ml
Average Log [23]: 2.0 Log
survival [23]: 1.1 × 10^2 cfu/ml and 1.2 × 10^2 cfu/ml
survival (14% MSM, 30 μg/ml oxacillin, 48 hours): 3.6 × 10^2 cfu/ml and 3.2 × 10^2 cfu/ml and 3.5 × 10^2 cfu/ml
survival (14% MSM, 30 μg/ml oxacillin, 72 hours): 1.4 × 10^2 cfu/ml and 1.7 × 10^2 cfu/ml and 1.8 × 10^2 cfu/ml
Average Log [24]: 1.7 Log
survival [24]: 5.0 × 10^1 cfu/ml and 6.0 × 10^1 cfu/ml
Average Log [25]: 1.3 Log
survival [25]: 3.0 × 10^1 cfu/ml and 2.0 × 10^1 cfu/ml
survival (14% MSM, 60 μg/ml oxacillin, 48 hours): 1.5 × 10^2 cfu/ml and 1.7 × 10^2 cfu/ml and 1.2 × 10^2 cfu/ml
survival (14% MSM, 60 μg/ml oxacillin, 72 hours): 2.0 × 10^1 cfu/ml and 4.0 × 10^1 cfu/ml
survival (14% MSM, 60 μg/ml oxacillin, 96 hours): 0 cfu/ml
Average Log [26]: 0 Log
survival [26]: 0 cfu/ml
survival ([…]% MSM, 12 μg/ml oxacillin, 72 hours): 2.3 × 10^2 cfu/ml and 2.2 × 10^2 cfu/ml and 1.2 × 10^2 cfu/ml
Average Log [27]: 2.1 Log
survival [27]: 1.2 × 10^2 cfu/ml and 1.3 × 10^2 cfu/ml
Average Log [28]: 2.0 Log
survival [28]: 1.1 × 10^2 cfu/ml and 1.3 × 10^2 cfu/ml and 1.2 × 10^2 cfu/ml
survival ([…]% MSM, 30 μg/ml oxacillin, 48 hours): 6.2 × 10^2 cfu/ml and 6.4 × 10^2 cfu/ml
survival ([…]% MSM, 30 μg/ml oxacillin, 72 hours): 2.3 × 10^2 cfu/ml and 2.2 × 10^2 cfu/ml and 2.8 × 10^2 cfu/ml
Average Log [29]: 1.9 Log
survival [29]: 8.0 × 10^1 cfu/ml
Average Log [30]: 0 Log
survival [30]: 0 cfu/ml
survival ([…]% MSM, 60 μg/ml oxacillin, 48 hours): 1.2 × 10^2 cfu/ml and 1.3 × 10^2 cfu/ml
survival ([…]% MSM, 60 μg/ml oxacillin, 72 hours): 0 cfu/ml
survival ([…]% MSM, 60 μg/ml oxacillin, 96 hours): 0 cfu/ml
Average Log [31]: 0 Log
survival [31]: 0 cfu/ml
survival (16% MSM, 12 μg/ml oxacillin, 72 hours): 1.1 × 10^2 cfu/ml and 1.2 × 10^2 cfu/ml and 1.6 × 10^2 cfu/ml
Average Log [32]: 2.2 Log
survival [32]: 1.4 × 10^2 cfu/ml and 1.6 × 10^2 cfu/ml
Average Log [33]: 1.5 Log
survival [33]: 3.0 × 10^1 cfu/ml and 2.0 × 10^1 cfu/ml
survival (16% MSM, 30 μg/ml oxacillin, 48 hours): 4.6 × 10^2 cfu/ml and 4.0 × 10^2 cfu/ml and 4.1 × 10^2 cfu/ml
survival (16% MSM, 30 μg/ml oxacillin, 72 hours): 9 × 10^1 cfu/ml and 8.0 × 10^1 cfu/ml
Average Log (16% MSM, 30 μg/ml oxacillin, 96 hours): 1.3 Log
Average Log [34]: 1.3 Log
survival [34]: 2.0 × 10^1 cfu/ml and 3.0 × 10^1 cfu/ml
survival (16% MSM, 60 μg/ml oxacillin, 48 hours): 9.0 × 10^1 cfu/ml and 6.0 × 10^1 cfu/ml
survival (16% MSM, 60 μg/ml oxacillin, 72 hours): 6.0 × 10^1 cfu/ml and 5.0 × 10^1 cfu/ml
Average Log [35]: 1.3 Log
survival [35]: 2.0 × 10^1 cfu/ml and 3.0 × 10^1 cfu/ml
Average Log [36]: 0 Log
survival [36]: 0 cfu/ml
